# Screening data, single-dose tests

Protein sequences, listed by entry. Tags and fused reporters are not part of them.
UniProt P9WPC5, whole entry: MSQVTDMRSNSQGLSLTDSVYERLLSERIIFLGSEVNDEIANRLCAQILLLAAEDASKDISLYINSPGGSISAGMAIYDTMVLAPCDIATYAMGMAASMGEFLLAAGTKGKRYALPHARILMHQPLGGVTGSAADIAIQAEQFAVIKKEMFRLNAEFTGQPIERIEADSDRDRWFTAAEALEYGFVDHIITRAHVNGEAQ
UniProt P9WPC3, whole entry partner: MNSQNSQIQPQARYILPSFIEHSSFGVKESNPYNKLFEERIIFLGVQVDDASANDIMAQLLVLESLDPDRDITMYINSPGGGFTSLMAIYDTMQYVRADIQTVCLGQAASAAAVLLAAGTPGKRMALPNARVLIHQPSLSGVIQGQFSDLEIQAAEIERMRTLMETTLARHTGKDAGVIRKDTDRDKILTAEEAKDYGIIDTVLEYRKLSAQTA

Measurements from “University of Dundee, Small-Polar-MMV Screening Library” (2021), ChEMBL document CHEMBL3988442.

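Protease assay of ClpP1P2, read by the AMC dye that it sets free. Target: ClpP1P2, Mycobacterium tuberculosis (UniProt P9WPC5 and UniProt P9WPC3). Compounds at 50 µM. Higher reads as stronger inhibition, judged from the few compounds that gave an IC50. Most other retested compounds had strongly negative values. Of about 69,000 compounds tested this way, about 10 (0.015%) reached 50% or more in at least one test.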

The filed quantity is “Percent Effect” (%). The record does not define 0% and 100%; most values in the screen are far below 50% and negative numbers occur (in some assays of this library far below -100). Compounds were drawn at random from those tested, without regard to their results.

| Compound | percent effect |
|---|---|
| `CC(C)n1nc2c(cc1=O)CN(Cc1nc3ccccc3o1)CC2` | -62.63 |
| `COc1ccc(Br)c(C(=O)N2CCCC(c3nc(C)no3)C2)c1` (stereo unspecified) | -15.23 |
| `NC(=O)c1cn[nH]c1C1CCCN1C(=O)c1ccccn1` (stereo unspecified) | -5.288 |
| `CC1CCN(Cc2cc(=O)[nH]c(=O)[nH]2)CC1` | 12.56 |
| `Cc1ccc(-c2cc(CN3CCc4cnc(C)nc4C3)on2)cc1` | 2.759 |
| `Cc1nnc(CSc2n[nH]c(-c3ccccn3)n2)o1` | -16.12 |
| `O=C1COC2(CCN(S(=O)(=O)C3CC3)CC2)CN1c1ccsc1` | -4.059 |
| `CCN(CC1CN(Cc2ccccn2)CCO1)c1cccnn1` (stereo unspecified) | 4.006 |
| `CC(=O)N1CCCC2(C1)CN(C(=O)c1ccncc1)CCO2` (stereo unspecified) | 1.304 |
| `COC(=O)c1ccc(S(=O)(=O)N2CCC(Oc3cccnn3)CC2)cc1` | 11.12 |
| `CCCN(CCC)c1ncc(S(=O)(=O)c2cccc(C)c2)c(N)n1` | 10.61 |
| `CN(c1ccc(CNC(=O)c2ccc(O)nc2)cc1)C1CCCCC1` | 11.58 |
| `Cc1n[nH]c(C2CN(CC(=O)NCc3sccc3C)CCO2)n1` (stereo unspecified) | -1.527 |
| `CC(Oc1ccc(F)c(F)c1)C(=O)N(CC(N)=O)C1CCCC1` (stereo unspecified) | -8.441 |
| `O=C(Nc1cccnc1-n1cc(Cl)cn1)C1CCCC1` | -8.275 |
| `O=C(CNC(=O)c1cnc2ccccc2c1O)NCCn1ccnc1` | 4.544 |
| `CCn1cc(S(=O)(=O)N2CCC(C3CCCCN(C)C3=O)CC2)c(C)n1` (stereo unspecified) | -3.542 |
| `CC(NC(=O)NCCCn1cncn1)c1ccc(C(F)(F)F)cc1` (stereo unspecified) | -32.15 |
| `CN(Cc1ccc(-n2ccnc2)cc1)Cc1ncc[nH]1` | -1.674 |
| `CC(C)CN1C[C@H]2CCN(C(=O)C3CCCO3)CC[C@H]2S1(=O)=O` (stereo partly specified) | -10.84 |
| `CCN1CCC(N2C[C@H]3OC(=O)N(CCc4cccc(Cl)c4)[C@H]3C2)CC1` | -3.222 |
| `O=C(NCC1CC(=O)N(CCc2ccccc2)C1)c1ccon1` (stereo unspecified) | -12.77 |
| `COC(=O)[C@H]1CN(C(=O)c2cscn2)C[C@@H]1c1ccc(F)cc1` | 12.92 |
| `COc1coc(CN2CCCC(CCc3ccccc3C)C2)cc1=O` (stereo unspecified) | -13.67 |
| `O=C(CS(=O)(=O)Cc1nnnn1C1CC1)NCCc1ccccc1` | 9.182 |
| `COC(=O)Cc1cccc(NC(=O)Cc2ccon2)c1` | 5.709 |
| `COCc1nc(C(=O)NS(=O)(=O)c2cc(C)ccc2C)cs1` | -2.507 |
| `Cc1noc(C2CCC3(CCN(C(=O)c4sccc4C)CC3)O2)n1` (stereo unspecified) | -10.98 |
| `CN(C)CCN(C(=O)Cc1ccc2c(c1)OCCO2)C1CCN(C)CC1` | -4.961 |
| `Cc1nnc2n1CCN(C(=O)c1cnc3c(cnn3C(C)C)c1)C2` | 0.008656 |
| `COCC1CN(C(=O)c2ccco2)Cc2nccn2C1` (stereo unspecified) | -2.346 |
| `CCc1cnc(CN(C)C(=O)NC2CCN(CC3CC3)C2)s1` (stereo unspecified) | -6.407 |
| `Cc1nc(C2CCN(C(=O)c3ccc(=O)n(C)c3)CC2)c2sccn12` | 2.024 |
| `Cc1cc(CN2C[C@@H]3COC[C@]3(CNC(=O)N3CCCC3)C2)no1` | -11.18 |
| `COCc1ccccc1C(=O)N1CCCC1Cn1nc(C)cc1C` (stereo unspecified) | -38.74 |
| `N#CC1(NC(=O)Cc2cc(Cl)c3c(c2)OCCO3)CCC1` | -1.714 |
| `CC(C)c1nnc2n1CCN(CCC(=O)N1CCc3ccccc31)C2` | -21.19 |
| `CCCc1nc(C)cc(N2CCC3(CCC(=O)N(C4CC4)C3)CC2)n1` | -7.134 |
| `COCc1cc(N(CC(F)F)C2CC2)n2ncnc2n1` | 0.3772 |
| `OCC1COCCN(c2ncccc2C(F)(F)F)C1` (stereo unspecified) | -8.964 |
| `CN(Cc1ccccc1)c1ncccc1CNC1CCSCC1` | -24.27 |
| `COc1ccc(C2CCCN2C(=O)CCNc2ncccn2)cc1` (stereo unspecified) | -7.77 |
| `CC(C)NC(=O)C[C@@H]1CCNC[C@@H]1Cc1cc(-c2ccccn2)on1` | 0.6519 |
| `CSCC[C@@H]1CN2CCC[C@H]2CN1Cc1coc2ccc(Cl)cc2c1=O` | 14.22 |
| `CCN(CC)C(=O)[C@@H]1C[C@@H](NC(=O)c2ccoc2)CN1C` | -6.902 |
| `O=S(=O)(c1cccnc1)N1CCN(CC(O)c2ccccc2)CC1` (stereo unspecified) | -2.284 |
| `CCCS(=O)(=O)N1CCOCC2(CCN(c3ccccn3)C2)C1` (stereo unspecified) | -7.228 |
| `Cc1ccc(CCN2CCCC23Cc2ccccc2CNC3=O)cc1` (stereo unspecified) | 16.83 |
| `COCCN1CCOCC12CCN(C(=O)Cc1cccs1)CC2` | 3.628 |
| `Cc1ccc(CN2Cc3ccnn3CC(COCc3cccnc3)C2)o1` (stereo unspecified) | -10.07 |
| `Cc1ccc2[nH]c(CN(C)c3cc(CN)nc(C)n3)nc2c1` | -11.99 |
| `CCn1nc(C)cc1C(=O)OCCNc1ncnc2ccccc12` | -5.831 |
| `Cc1ccc(Nc2nccc(C3CCN(C(=O)CO)C3)n2)nc1` (stereo unspecified) | -37.93 |
| `Cc1n[nH]/c(=N\C(=O)c2c3c(nc4onc(C)c24)CCC3)s1` | -0.5809 |
| `CN1CCN(C(=O)[C@H]2C[C@@H]3CN(c4ncc(F)cn4)C[C@@H]3N2C)CC1` | 8.6 |
| `CS(=O)(=O)Cc1noc(CN2CCc3c(Cl)cccc3C2)n1` | -4.201 |
| `Cc1cnc(N2CCC3(CC2)CC3CN(C)Cc2cccnc2)nc1` (stereo unspecified) | 12.7 |
| `CC(C)C(=O)NCCNC(=O)C12CCC(=O)N1c1cc(Cl)ccc1S2` (stereo unspecified) | -8.731 |
| `CC(C)COC1CC2(CCN(Cc3nccn3C)CC2)C1` | -5.279 |
| `CCS(=O)(=O)N1CCC2(CC1)CC[C@@]1(C(=O)N(C)C)CN(C(C)=O)C[C@@H]21` | 6.693 |
| `COC1CCCN(C2CCN(c3cccc(-c4csc(C)n4)c3)CC2)C1` (stereo unspecified) | -11.2 |
| `Nc1ncnc2[nH]c(N3CCCCC3)nc12` | 5.704 |
| `CSCC(=O)N1CCOC(c2nc(C(C)C)n[nH]2)C1` (stereo unspecified) | -4.635 |
| `Cc1oc(-c2ccccc2)nc1CN1CCC(c2ccnn2C)CC1` | 0.2226 |
| `COCC1CCN(CCOc2ccc(C#N)cc2OC)CC1` | -0.9732 |
| `CC(C)n1ccnc1CN1CCOC(CCc2ccccc2)C1` (stereo unspecified) | -15.75 |
| `Cn1cc(C2SCC(=O)Nc3c2c(=O)[nH]n3C2CCOCC2)cn1` (stereo unspecified) | -0.2345 |
| `CCn1cc(CN2CCN(C(=O)c3cc(Br)cs3)CC2)c(C)n1` | -6.528 |
| `Cc1cc(C)n(C2CN(CCC(=O)NC3CCCCC3)C2)n1` | -10.86 |
| `CC1(C(=O)N2CCOCC2)CN(Cc2c[nH]cn2)CCO1` (stereo unspecified) | 11.94 |
| `CCn1ncc2c1CCCC2NCc1csc(C(C)C)n1` (stereo unspecified) | -3.134 |
| `O=C(c1cscn1)N1CCC2(CCN(Cc3nccs3)C2)CC1` | 8.224 |
| `Cc1nccn1CCCC(=O)N1CCCC(c2noc(C(C)C)n2)C1` (stereo unspecified) | -10.21 |
| `COCC(=O)NCC1CCN(Cc2ccsc2)CC1` | 4.948 |
| `CC(C)CNC(=O)Nc1ccc(CN2CCOC2=O)cc1` | -0.2463 |

For reference, 5 entries once more:

Compound	percent effect
O=C(NCC1CC(=O)N(CCc2ccccc2)C1)c1ccon1 (stereo unspecified)	-12.77
CC1CCN(Cc2cc(=O)[nH]c(=O)[nH]2)CC1	12.56
COC(=O)Cc1cccc(NC(=O)Cc2ccon2)c1	5.709
COc1ccc(C2CCCN2C(=O)CCNc2ncccn2)cc1 (stereo unspecified)	-7.77
Cc1nccn1CCCC(=O)N1CCCC(c2noc(C(C)C)n2)C1 (stereo unspecified)	-10.21